## Library screen at single concentrations

Chains of the proteins cited; added tags and fusions are not shown. Residues count along the entry.
UniProt Q8IDJ8, 1-583: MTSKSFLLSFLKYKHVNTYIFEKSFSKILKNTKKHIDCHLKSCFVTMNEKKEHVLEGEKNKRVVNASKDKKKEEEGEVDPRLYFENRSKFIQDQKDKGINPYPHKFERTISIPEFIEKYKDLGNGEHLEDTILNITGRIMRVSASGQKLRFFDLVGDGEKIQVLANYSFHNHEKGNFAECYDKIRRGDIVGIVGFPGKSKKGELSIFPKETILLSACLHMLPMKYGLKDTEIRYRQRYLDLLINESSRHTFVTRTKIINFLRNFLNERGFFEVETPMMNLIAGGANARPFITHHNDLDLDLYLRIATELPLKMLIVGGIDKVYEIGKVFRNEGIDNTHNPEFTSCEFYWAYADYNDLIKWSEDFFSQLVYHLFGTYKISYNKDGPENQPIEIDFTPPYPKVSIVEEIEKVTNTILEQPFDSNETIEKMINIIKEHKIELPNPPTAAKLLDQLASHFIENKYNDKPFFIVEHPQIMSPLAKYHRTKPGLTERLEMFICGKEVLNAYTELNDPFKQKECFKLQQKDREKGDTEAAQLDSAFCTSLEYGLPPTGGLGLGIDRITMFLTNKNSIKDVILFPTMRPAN
UniProt A4I591, 1-473: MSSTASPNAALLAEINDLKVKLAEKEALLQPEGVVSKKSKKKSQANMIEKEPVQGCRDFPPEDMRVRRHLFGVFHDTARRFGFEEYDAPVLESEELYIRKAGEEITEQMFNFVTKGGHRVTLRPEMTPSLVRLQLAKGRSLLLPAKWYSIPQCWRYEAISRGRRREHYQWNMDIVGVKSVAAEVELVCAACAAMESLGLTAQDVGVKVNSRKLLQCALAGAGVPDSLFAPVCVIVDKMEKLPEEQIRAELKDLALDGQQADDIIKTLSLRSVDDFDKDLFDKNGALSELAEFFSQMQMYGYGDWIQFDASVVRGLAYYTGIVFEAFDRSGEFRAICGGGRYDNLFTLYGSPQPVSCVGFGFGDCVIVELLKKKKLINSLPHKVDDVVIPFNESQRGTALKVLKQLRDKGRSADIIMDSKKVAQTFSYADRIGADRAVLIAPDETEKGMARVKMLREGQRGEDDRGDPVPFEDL

Source: ChEMBL document CHEMBL3988442, “University of Dundee, Small-Polar-MMV Screening Library” (2021).

Leishmania in macrophages: 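Cell assay of Leishmania donovani living inside macrophages; the read-out is not stated. Tested at 30 µM. Direction is inferred from retests: higher values go with stronger inhibition. Of about 69,000 compounds tested this way, about 1,000 (1.5%) reached 50% or more in at least one test.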
PfKRS1: 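Lysine-tRNA ligase, Plasmodium falciparum 3D7 (UniProt Q8IDJ8). Enzyme assay of the cytosolic lysyl-tRNA synthetase in 384-well plates, read by luminescence. Tested at 30 µM. Direction is inferred from only a few compounds that gave an IC50; most scored high, so higher reads as stronger inhibition. Of about 69,000 compounds tested this way, about 49 (0.071%) reached 50% or more in at least one test.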
LiHisRS: 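Enzyme assay of histidyl-tRNA synthetase; the read-out is not stated. Target: Histidine-tRNA ligase, Leishmania infantum (UniProt A4I591). Compounds at 30 µM. Direction is inferred from retests: higher values go with stronger inhibition. The assay is labelled LdHisRS but filed under L. infantum. About 69,000 compounds were tested under these conditions; 0.6% (about 410) showed 50% or more at least once.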

Results are given as percent effect. The controls that fix the scale are not given in the record; negative values are as filed. This is an unselected part of the compounds tested. Two or more numbers in one place are separate tests of the same structure; such repeats can differ widely.

* COc1ccc(-c2noc(CN3CC(n4cc(C)cn4)C3)n2)cc1 : Leishmania in macrophages: 8.766%; PfKRS1: 0.3974%; LiHisRS: 10.43%
* CN(C)CCN1C2(CCN(Cc3nccs3)C2)c2ccccc2S1(=O)=O.O=C(O)C(F)(F)F.O=C(O)C(F)(F)F (stereo unspecified) : Leishmania in macrophages: 16.25%
* CNC(=O)[C@@]12CCC3(CCN(S(=O)(=O)C4CC4)CC3)[C@@H]1CN(C(C)=O)C2 : PfKRS1: -1.088%; LiHisRS: 20.83%
* CC(CN1CCC2(CC1)N=C(N(C)C)NC2=O)c1ccccc1 (stereo unspecified) : Leishmania in macrophages: -22.09%; PfKRS1: 3.862%; LiHisRS: 7.292%
* Cl.NCc1ccc(Oc2ccc(F)c(F)c2)cc1C(F)(F)F : Leishmania in macrophages: 25.12%
* CN(C)C(=O)CN1C[C@@H]2CC[C@H](C1)N(Cc1ccc3nsnc3c1)C2 : PfKRS1: 2.095%; LiHisRS: 11.29%
* CC(=O)N1CCC(Nc2cc(F)ccc2OCC2CCCO2)CC1 (stereo unspecified) : Leishmania in macrophages: 0.01825%; PfKRS1: -1.259%; LiHisRS: -3.846%
* Cc1n[nH]c(C)c1CNc1ccc(-c2nc(C3CC3)no2)cn1 : Leishmania in macrophages: -3.097%; PfKRS1: 4.348%; LiHisRS: 9.302%
* Cc1nc(C2(O)CCCNCC2)sc1CCOc1ccccc1Cl.Cl (stereo unspecified) : Leishmania in macrophages: 22.61%
* CCNc1cc2c(nn1)CCN(C(=O)C1CCc3ccccc31)C2 (stereo unspecified) : Leishmania in macrophages: 2.385%; PfKRS1: -0.7513%; LiHisRS: 3.636%
* CC(Cn1cncn1)NC(=O)N1CC2(CCCC2)c2ccccc21 (stereo unspecified) : Leishmania in macrophages: 3.028%; PfKRS1: 4.836%; LiHisRS: 3.125%
* COC(C)(C)CNC(=O)N1CCC(n2ccc(C(F)(F)F)n2)CC1 : Leishmania in macrophages: -7.317%; PfKRS1: -0.04752%; LiHisRS: 17.28%
* COc1cccc(CCC2CCCN(C(C)=O)C2)c1 (stereo unspecified) : Leishmania in macrophages: 6.874%; PfKRS1: 2.802%; LiHisRS: 14.4%
* COCCS(=O)(=O)Nc1ccc(-n2nccc2C(F)(F)F)cc1 : Leishmania in macrophages: -13.47%; PfKRS1: -1.477%; LiHisRS: 15.97%
* CC(C)OCc1ncn2c1CN(Cc1cccs1)CCC2.O=C(O)C(F)(F)F : Leishmania in macrophages: -29.02%
* COc1ccc2c(C(=O)N(C)C)cc(-c3cnc(N)nc3)nc2c1 : Leishmania in macrophages: 12.11%; PfKRS1: -2.222%; LiHisRS: 12.82%
* Cc1nnc([C@@H]2CC[C@@H]3[C@@H](CCN3C3CCC3)O2)o1 : PfKRS1: 1.711%; LiHisRS: 5.263%
* O=C1CC2(CNCCN(C(=O)Nc3ccccc3)C2)CN1 (stereo unspecified) : PfKRS1: 2.478%; LiHisRS: 17.48%
* COCCN(Cc1cccc(O)c1)CC1CC1 : Leishmania in macrophages: 27.48% & 9.086%; PfKRS1: -6.022%; LiHisRS: -10.53%
* CCC(O)CN1CCN(C(=O)c2cc3ccccc3n2CC)CC1 (stereo unspecified) : Leishmania in macrophages: 10.75%; PfKRS1: -0.8714%; LiHisRS: 9.615%
* COc1cnc(C2(O)CCN(C(=O)c3cccnc3)CC2)c(OC)n1 : Leishmania in macrophages: 32.75%; PfKRS1: -1.562%; LiHisRS: 13.89%
* C1CCC(CNC2CCCN(Cc3noc(C4CC4)n3)C2)CC1 (stereo unspecified) : Leishmania in macrophages: 32.18%; PfKRS1: 2.05%; LiHisRS: 14.29%
* CC(C(=O)N1CCCN(Cc2ccc(C#N)cc2)CC1)n1cccn1 (stereo unspecified) : Leishmania in macrophages: 17.55%; PfKRS1: -0.5549%; LiHisRS: 16.07%
* [H][C@]12CC[C@]([H])(CN(Cc3ccccn3)C1)N(C(=O)c1cc(C3CC3)no1)C2 : Leishmania in macrophages: 5.535%
* Cc1ccc(N2CCOC(C)(C(=O)N(C)C)C2)nn1 (stereo unspecified) : Leishmania in macrophages: 2.341%; PfKRS1: 2.883%; LiHisRS: 1.418%
* COCc1cc(CNC(=O)c2cc(NC(C)=O)ccc2Cl)n[nH]1 : Leishmania in macrophages: -11.55%; PfKRS1: -3.22%; LiHisRS: 7.792%
* Cn1cc(C[C@H]2[C@H](O)CCN2CC2CC2)cn1 : PfKRS1: 1.059%; LiHisRS: 7.519%
* COc1ccc(S(=O)(=O)NC(=O)COC2CCCCC2)cc1 : Leishmania in macrophages: -11.33%; PfKRS1: 2.486%; LiHisRS: 3.478%
* COc1cccc(CN2CCCCCC2c2cccc(F)c2)c1O (stereo unspecified) : Leishmania in macrophages: 26.21%; PfKRS1: -0.1149%; LiHisRS: 22.83%
* [H][C@@]12COC[C@]1(C(=O)N1CCCO1)CN(Cc1cnn(C)c1)C2 : Leishmania in macrophages: 7.908%
* CCn1cc(CN2CCCN(C(=O)CCc3cnn(C)c3)CC2)cn1 : Leishmania in macrophages: 21.86%; PfKRS1: 0.5456%; LiHisRS: 6.957%
* Cc1cnccc1N1CCCN(C(=O)CCCS(N)(=O)=O)CC1 : Leishmania in macrophages: 11.1%; PfKRS1: 3.744%; LiHisRS: 21.15%